The shares of active, inactive and inconclusive entries below differ from those in the screen. A potency beside an inconclusive call is a rough fit, not a confirmed value. A note “side channel” means that the fit belongs to a control or component signal, not to the main read-out. Active and inactive are the calls of the source. Calls follow the shape of the dose curve; as a rule, active = well fitted activation curve with a large enough effect in the signal ratio; inconclusive = small, poorly fitted or top-dose-only effect, or effect the other way, or a change in a side signal; inactive = flat fitted curve, though single readings scatter; the % refers to the signal ratio.
Assay: qHTS assay for small molecule agonists of the antioxidant response element (ARE) signaling pathway (AID 651741); as to activation: % of control where 0% means no effect
Conditions: HepG2 ARE-bla reporter, beta-lactamase FRET ratio, 16 h; activation: at 96 µM (top of the series) unless noted
In short: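 HepG2 ARE-bla cells plated at 2,000 cells/well and incubated 5 h at 37 C/5% CO2 received 23 nL compound in DMSO. After 16 h at 37 C, LiveBLAzer B/G FRET substrate was applied for 2 h at room temperature and fluorescence read.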
In the case of O=C(O)c1cc(O)c2ccccc2c1O, the Potency is reported as active: 7.7 µM. In the case of Cc1ccc2ncccc2c1, the Potency is reported as “inactive”. In the case of FC(F)(F)c1ccc(Cl)c(Cl)c1, the activation is reported as inconclusive: -9.66%. In the case of Cc1ccc2nc(-c3ccc(N)cc3)sc2c1S(=O)(=O)O, the Potency is reported as active: 42.2 µM. In the case of C=CCn1c(=O)n(CC=C)c(=O)n(CC=C)c1=O, the Potency is reported as inconclusive: 75 µM [activator, partial curve, poor fit]. With Nc1ccc(N)c2c1C(=O)c1c(N)ccc(N)c1C2=O the Potency was active: 27.3 µM. With CCCCCCCCCCCCCCCCCC#N the Potency was “inactive”. In the case of CCCCCCCC/C=C\CCCCCCCCCCCCC, the Potency is reported as “inactive”. With CCN(Cc1c(F)cccc1Cl)c1c([N+](=O)[O-])cc(C(F)(F)F)cc1[N+](=O)[O-] the Potency was inconclusive: 68.6 µM [activator, partial curve, poor fit]. For C[C@@H]1CC2(OC[C@]3(C)O[C@H]23)O[C@H]2C[C@@]3(C)[C@@H]4CC[C@H]5C(C)(C)C(O[C@@H]6OC[C@@H](O)[C@H](O)[C@H]6O)CC[C@@]56C[C@@]46CC[C@]3(C)[C@@H]12 (stereo partly drawn), the Potency was inconclusive: 13.3 µM [fluorescent, side channel, partial curve, poor fit]. For c1ccc(Nc2ccccc2)cc1, the Potency was “inactive”. With C[Si](C)(Cl)[Si](C)(C)Cl the Potency was “inactive”. For COCCO, the Potency was “inactive”. For O=C(O)C1(C(=O)Nc2ccc(Cl)cc2Cl)CC1, the Potency was inconclusive: 54.5 µM [activator, partial curve]. For Cc1ccc2c(c1[N+](=O)[O-])C(=O)c1ccccc1C2=O, the Potency was active: 11.9 µM. With CC(C)CCCCCCc1ccc(OCCOCCO)cc1 the Potency was inconclusive: 61.1 µM [cytotoxic, side channel, partial curve]. With CC[C@H](C)C1O[C@]2(C=C[C@@H]1C)C[C@@H]1C[C@@H](C/C=C(\C)[C@@H](O[C@H]3C[C@H](OC)[C@@H](O[C@H]4C[C@H](OC)[C@H](NC(C)=O)[C@H](C)O4)[C@H](C)O3)[C@@H](C)/C=C/C=C3\CO[C@@H]4[C@H](O)C(C)=C[C@@H](C(=O)O1)[C@]34O)O2 (stereo partly drawn) the Potency was inconclusive: 48.6 µM [cytotoxic, side channel, partial curve]. For CCCCCCCCCC[N+](C)(C)Cc1ccccc1, the activation was inconclusive: 8.48%. For Cn1sccc1=O, the activation was inconclusive: -6.02%. With O=c1[nH]sc2ccccc12 the Potency was active: 27.3 µM. For CCCCCCCCCCCC(=O)OC, the Potency was active: 24.3 µM. For Cc1cc(Cc2cc(C)cc(C(C)(C)C)c2O)c(O)c(C(C)(C)C)c1, the Potency was active: 48.6 µM. With O=C(O)c1cc2ccccc2cc1O the activation was inconclusive: 17.3%.

— PubChem BioAssay (NCATS)
Potency is read from the fitted curve at half-maximal effect.
